Source: the supplement of paper PMC10470496
Where a name gives a salt, the structure may show the parent alone. The list shows a part of the results. Single values are uncertain, as repeats are few or missing.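 Three clinical Candida auris isolates (clades III, IV and I) from the CDC resistance isolate bank were grown in RPMI-1640 at 35°C. Growth was background-corrected OD600 relative to same-plate vehicle-only wells. Hits required over 50% inhibition in at least two strains and a plate-corrected B-score above 0.1.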

Test system: C. auris AR-386
Test: growth relative to vehicle control (OD600 ratio) (fraction); higher = less inhibition
Details: 10 µM; 24 h

Row | SMILES | growth
1 | CC(=O)OC(C)C[N+](C)(C)C (configuration not stated) [Methacholine chloride] | 0.76
2 | CCCC1O[C@@H]2C[C@H]3[C@@H]4CCC5=CC(=O)C=C[C@]5(C)[C@H]4[C@@H](O)C[C@]3(C)[C@]2(C(=O)CO)O1 (some centres not stated) [Budesonide] | 0.81
3 | COCCCOc1ccnc(C[S+]([O-])c2nc3ccccc3[nH]2)c1C (configuration not stated) [Rebeprazole sodium] | 0.67
4 | Cc1nc2c([nH]1)-c1ccccc1N(C(=O)c1ccc(NC(=O)c3ccccc3-c3ccccc3)cc1)CC2 [Conivaptan HCl] | 0.87
5 | O=C1CN(/N=C/c2ccc([N+](=O)[O-])o2)C(=O)N1 [Nitrofurantoin] | 0.48
6 | Cc1noc(NS(=O)(=O)c2ccc(N)cc2)c1C [Sulfisoxazole] | 1.03
7 | C[C@@H]1C[C@H]2[C@@H]3CCC4=CC(=O)C=C[C@]4(C)[C@@]3(F)[C@@H](O)C[C@]2(C)[C@@]1(O)C(=O)CO [Dexamethasone (DHAP)] | 0.68
8 | COc1cc2nc(N3CCN(C(=O)C4CCCO4)CC3)nc(N)c2cc1OC (configuration not stated) [Terazosin HCl] | 0.78
9 | COCCCN1CCC(NC(=O)c2cc(Cl)c(N)c3c2OCC3)CC1 [Prucalopride] | 1.24
10 | COc1cccc2c1C(=O)c1c(O)c3c(c(O)c1C2=O)C[C@@](O)(C(C)=O)C[C@@H]3O[C@H]1C[C@H](N)[C@H](O)[C@H](C)O1 [Daunorubicin HCl] | 0.48
11 | CC(=O)OCC[N+](C)(C)C [Acetylcholine Chloride] | 1.23
12 | NC(=O)N1CCC(CC(=O)N2CCC([C@H]3c4ncc(Br)cc4CCc4cc(Cl)cc(Br)c43)CC2)CC1 [Lonafarnib] | 0.76

3 structures already listed, ordered by formula weight, rising.
Row | SMILES | growth
3 | COCCCOc1ccnc(C[S+]([O-])c2nc3ccccc3[nH]2)c1C (configuration not stated) [Rebeprazole sodium] | 0.67
10 | COc1cccc2c1C(=O)c1c(O)c3c(c(O)c1C2=O)C[C@@](O)(C(C)=O)C[C@@H]3O[C@H]1C[C@H](N)[C@H](O)[C@H](C)O1 [Daunorubicin HCl] | 0.48
12 | NC(=O)N1CCC(CC(=O)N2CCC([C@H]3c4ncc(Br)cc4CCc4cc(Cl)cc(Br)c43)CC2)CC1 [Lonafarnib] | 0.76
